PubChem BioAssay AID1259425 | University of Nebraska Medical Center, 2018

Assay: 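Compare each knockdown with KSR1 silencing using changes in marker transcripts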 (primary screen)
Cells: HCT116 human colon cancer cells
Knock-down reagent: siRNA pool against human genes, 50 nM siRNA
Read-out: 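After 50 nM siRNA pool, branched-DNA assay measures six marker transcripts per well, minus blank, normalised to the geometric mean of two housekeeping transcripts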
Direction: BNIP3L mRNA: higher = more BNIP3L transcript after knockdown; NDRG1 mRNA: higher = more NDRG1 transcript after knockdown
Here is a random part of about 14,000 reagents tested. Not all columns of the deposit are shown. Not stated in the record: the time to read-out.

HMGXB3 (HMG-box containing 3) [SID364005597] → BNIP3L mRNA, set 1 = 0.138; NDRG1 mRNA, set 1 = 0.193
CLDN8 (claudin 8) [SID364004996] → BNIP3L mRNA, set 1 = 0.19; NDRG1 mRNA, set 1 = 0.14
MTA1 (metastasis associated 1) [SID363995650] → BNIP3L mRNA, set 1 = 0.123; NDRG1 mRNA, set 1 = 0.441
RSU1 (Ras suppressor protein 1) [SID363998308] → BNIP3L mRNA, set 1 = 0.136; NDRG1 mRNA, set 1 = 0.159
CPA1 (carboxypeptidase A1) [SID363993081] → BNIP3L mRNA, set 1 = 0.121; NDRG1 mRNA, set 1 = 0.217
CSRNP1 (cysteine and serine rich nuclear protein 1) [SID364004285] → BNIP3L mRNA, set 1 = 0.108; NDRG1 mRNA, set 1 = 0.202
PTK2 (protein tyrosine kinase 2) [SID363996502] → BNIP3L mRNA, set 1 = 0.121; NDRG1 mRNA, set 1 = 0.092
GBA1 (glucosylceramidase beta 1) [SID363991493] → BNIP3L mRNA, set 1 = 0.0632; NDRG1 mRNA, set 1 = 0.326
ZNF410 (zinc finger protein 410) [SID364002075] → BNIP3L mRNA, set 1 = 0.117; NDRG1 mRNA, set 1 = 0.189
TFDP3 (transcription factor Dp family member 3) [SID364000166] → BNIP3L mRNA, set 1 = 0.0759; NDRG1 mRNA, set 1 = 0.12
PROP1 (PROP paired-like homeobox 1) [SID363997084] → BNIP3L mRNA, set 1 = 0.213; NDRG1 mRNA, set 1 = 0.21
RAB5IF (RAB5 interacting factor) [SID364004999] → BNIP3L mRNA, set 1 = 0.0709; NDRG1 mRNA, set 1 = 0.425
RCAN1 (regulator of calcineurin 1) [SID363995396] → BNIP3L mRNA, set 1 = 0.0968; NDRG1 mRNA, set 1 = 0.475
RAD23A (RAD23 nucleotide excision repair protein A) [SID363995991] → BNIP3L mRNA, set 1 = 0.0751; NDRG1 mRNA, set 1 = 0.394
CELA3B (chymotrypsin like elastase 3B) [SID363997994] → BNIP3L mRNA, set 1 = 0.14; NDRG1 mRNA, set 1 = 0.491
SUPT5H (SPT5 homolog, DSIF elongation factor subunit) [SID363994306] → BNIP3L mRNA, set 1 = 0.184; NDRG1 mRNA, set 1 = 0.209
SNRPA (small nuclear ribonucleoprotein polypeptide A) [SID363995566] → BNIP3L mRNA, set 1 = 0.158; NDRG1 mRNA, set 1 = 0.308
DYNLRB2 (dynein light chain roadblock-type 2) [SID364004525] → BNIP3L mRNA, set 1 = 0.0741; NDRG1 mRNA, set 1 = 0.11
NTN1 (netrin 1) [SID363995775] → BNIP3L mRNA, set 1 = 0.12; NDRG1 mRNA, set 1 = 0.177
DENND4C (DENN domain containing 4C) [SID364000650] → BNIP3L mRNA, set 1 = 0.0945; NDRG1 mRNA, set 1 = 0.0865
RGS10 (regulator of G protein signaling 10) [SID363994079] → BNIP3L mRNA, set 1 = 0.129; NDRG1 mRNA, set 1 = 0.267
NKIRAS2 (NFKB inhibitor interacting Ras like 2) [SID363992285] → BNIP3L mRNA, set 1 = 0.0753; NDRG1 mRNA, set 1 = 0.321
ZNF250 (zinc finger protein 250) [SID364001980] → BNIP3L mRNA, set 1 = 0.176; NDRG1 mRNA, set 1 = 0.0991
C1GALT1C1 (C1GALT1 specific chaperone 1) [SID364004735] → BNIP3L mRNA, set 1 = 0.085; NDRG1 mRNA, set 1 = 0.156
SSB (small RNA binding exonuclease protection factor La) [SID363994282] → BNIP3L mRNA, set 1 = 0.161; NDRG1 mRNA, set 1 = 0.153
P2RX5 (purinergic receptor P2X 5) [SID363993730] → BNIP3L mRNA, set 1 = 0.169; NDRG1 mRNA, set 1 = 0.353
WDHD1 (WD repeat and HMG-box DNA binding protein 1) [SID363997815] → BNIP3L mRNA, set 1 = 0.117; NDRG1 mRNA, set 1 = 0.109
STC1 (stanniocalcin 1) [SID363994294] → BNIP3L mRNA, set 1 = 0.191; NDRG1 mRNA, set 1 = 0.424

Single entries from the list:
Under “NDRG1 mRNA, set 1”, SSB (small RNA binding exonuclease protection factor La) [SID363994282] reads 0.153
Under “NDRG1 mRNA, set 1”, RSU1 (Ras suppressor protein 1) [SID363998308] shows 0.159
